According to US7923028B2, “High dose oral formulation of bisphosphonate and a process for making thereof” (Hoffman-La Roche Inc., priority 2002, dated 2011):
For at least one compound, name, drawing or mass did not settle the structure.

Assay: ibandronate clinical development program, fracture reduction
Assay type: in vivo
Conditions: drug-free interval beyond daily administration; weekly or monthly oral administration

In the case of `CCCCCN(C)CCC(O)(P(=O)(O)O)P(=O)(O)O` [ibandronate, [1-hydroxy-3-(methyl pentyl amino)propylidene]bis-phosphonate], the fracture reduction efficacy is reported as “showed fracture reduction efficacy”.
